Some of the results follow.
Columns and labels:
Assay in all cases: log2 fold change, soluble protein after heating vs DMSO (PISA); higher = thermal stabilisation; K562 cells, 10 uM, 30 min; active = over 0.2 and 3.5 SD of the protein, either way, in both replicates (recomputed)
[1] = compound: NC(=O)Nc1cc(-c2cccc(F)c2)sc1C(=O)N[C@H]1CCCNC1
Summary of the method: (§1)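 Quantification of soluble protein used TMTpro 16plex LC-MS/MS, with channel sums equalised. Samples were the supernatant after 21,000xg for 90 min of pooled aliquots from K562 cells (2×10^6 cells/mL) treated with 10 μM compound for 30 min, heated for 3 min over 48°C-58°C, and extracted in PBS with 0.5% NP-40 at 4°C. Values, from duplicates, describe thermal stability against control samples on a log2 fold-change scale.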

The chains behind the UniProt entries cited, without tags or fusion partners. Where a name states a change or a piece, a line headed by the entry shows the natural chain unless it says otherwise.
UniProt P46531, whole entry, looked up: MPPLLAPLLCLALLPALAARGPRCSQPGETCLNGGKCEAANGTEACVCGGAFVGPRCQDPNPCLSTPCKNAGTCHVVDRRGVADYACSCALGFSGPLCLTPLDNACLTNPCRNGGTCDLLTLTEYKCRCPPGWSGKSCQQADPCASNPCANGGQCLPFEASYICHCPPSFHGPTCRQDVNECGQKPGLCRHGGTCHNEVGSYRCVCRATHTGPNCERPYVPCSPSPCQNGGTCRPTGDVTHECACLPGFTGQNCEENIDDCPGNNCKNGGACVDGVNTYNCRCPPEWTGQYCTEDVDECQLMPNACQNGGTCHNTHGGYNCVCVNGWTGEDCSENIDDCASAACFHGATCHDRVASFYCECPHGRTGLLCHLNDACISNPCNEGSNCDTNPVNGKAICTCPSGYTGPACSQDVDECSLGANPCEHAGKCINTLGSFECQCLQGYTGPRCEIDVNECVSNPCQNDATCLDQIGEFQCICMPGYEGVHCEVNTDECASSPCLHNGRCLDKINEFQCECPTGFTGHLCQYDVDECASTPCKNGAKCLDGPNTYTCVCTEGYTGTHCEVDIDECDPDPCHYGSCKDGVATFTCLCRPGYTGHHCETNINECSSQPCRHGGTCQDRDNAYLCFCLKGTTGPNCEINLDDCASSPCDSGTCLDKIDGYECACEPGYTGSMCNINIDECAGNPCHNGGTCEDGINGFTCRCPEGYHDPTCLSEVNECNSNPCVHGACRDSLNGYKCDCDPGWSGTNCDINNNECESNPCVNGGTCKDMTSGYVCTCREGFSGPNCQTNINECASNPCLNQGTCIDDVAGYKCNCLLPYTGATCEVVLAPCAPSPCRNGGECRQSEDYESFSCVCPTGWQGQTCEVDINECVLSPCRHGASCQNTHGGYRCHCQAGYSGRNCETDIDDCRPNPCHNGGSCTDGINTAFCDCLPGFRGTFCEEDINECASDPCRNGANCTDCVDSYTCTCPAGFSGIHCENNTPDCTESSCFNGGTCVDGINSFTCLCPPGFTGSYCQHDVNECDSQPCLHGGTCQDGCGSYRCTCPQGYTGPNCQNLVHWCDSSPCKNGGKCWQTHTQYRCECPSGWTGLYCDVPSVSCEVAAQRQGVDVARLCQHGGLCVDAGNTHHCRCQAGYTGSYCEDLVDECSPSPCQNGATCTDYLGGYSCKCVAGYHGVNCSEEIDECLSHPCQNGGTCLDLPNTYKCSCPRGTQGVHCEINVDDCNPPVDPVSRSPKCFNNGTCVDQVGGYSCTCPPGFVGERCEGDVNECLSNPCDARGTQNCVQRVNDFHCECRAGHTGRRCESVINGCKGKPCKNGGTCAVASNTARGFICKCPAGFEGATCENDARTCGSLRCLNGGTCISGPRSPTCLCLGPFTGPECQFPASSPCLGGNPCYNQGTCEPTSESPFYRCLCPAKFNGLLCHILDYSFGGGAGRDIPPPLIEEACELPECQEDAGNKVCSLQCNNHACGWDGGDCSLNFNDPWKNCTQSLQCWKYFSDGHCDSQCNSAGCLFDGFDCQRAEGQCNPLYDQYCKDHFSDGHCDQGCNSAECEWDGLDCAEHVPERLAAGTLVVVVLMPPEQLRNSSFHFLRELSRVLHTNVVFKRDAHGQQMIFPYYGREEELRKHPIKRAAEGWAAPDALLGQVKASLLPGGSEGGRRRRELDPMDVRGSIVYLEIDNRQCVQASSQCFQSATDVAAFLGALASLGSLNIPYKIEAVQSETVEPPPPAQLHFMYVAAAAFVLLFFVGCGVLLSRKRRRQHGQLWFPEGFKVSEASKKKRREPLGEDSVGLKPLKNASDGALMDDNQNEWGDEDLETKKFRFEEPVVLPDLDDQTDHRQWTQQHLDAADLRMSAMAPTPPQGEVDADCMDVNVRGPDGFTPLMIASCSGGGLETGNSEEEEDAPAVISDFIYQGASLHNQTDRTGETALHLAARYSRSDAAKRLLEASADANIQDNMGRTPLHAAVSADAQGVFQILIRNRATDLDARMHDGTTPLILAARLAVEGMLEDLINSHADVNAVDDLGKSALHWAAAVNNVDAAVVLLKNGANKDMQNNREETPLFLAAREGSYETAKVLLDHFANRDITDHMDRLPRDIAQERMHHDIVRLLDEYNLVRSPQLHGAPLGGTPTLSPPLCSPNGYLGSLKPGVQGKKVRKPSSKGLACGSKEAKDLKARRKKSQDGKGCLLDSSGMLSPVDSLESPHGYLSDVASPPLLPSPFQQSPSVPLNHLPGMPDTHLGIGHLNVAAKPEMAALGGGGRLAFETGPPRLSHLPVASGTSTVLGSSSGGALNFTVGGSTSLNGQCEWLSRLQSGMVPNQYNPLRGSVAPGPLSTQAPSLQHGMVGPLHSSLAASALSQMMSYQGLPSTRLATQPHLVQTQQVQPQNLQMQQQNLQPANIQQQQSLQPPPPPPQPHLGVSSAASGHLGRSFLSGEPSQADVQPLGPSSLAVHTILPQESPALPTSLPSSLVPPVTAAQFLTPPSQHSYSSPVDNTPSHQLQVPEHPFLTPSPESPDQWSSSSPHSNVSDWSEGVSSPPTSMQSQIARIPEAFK
UniProt Q8IXH7, whole entry, looked up: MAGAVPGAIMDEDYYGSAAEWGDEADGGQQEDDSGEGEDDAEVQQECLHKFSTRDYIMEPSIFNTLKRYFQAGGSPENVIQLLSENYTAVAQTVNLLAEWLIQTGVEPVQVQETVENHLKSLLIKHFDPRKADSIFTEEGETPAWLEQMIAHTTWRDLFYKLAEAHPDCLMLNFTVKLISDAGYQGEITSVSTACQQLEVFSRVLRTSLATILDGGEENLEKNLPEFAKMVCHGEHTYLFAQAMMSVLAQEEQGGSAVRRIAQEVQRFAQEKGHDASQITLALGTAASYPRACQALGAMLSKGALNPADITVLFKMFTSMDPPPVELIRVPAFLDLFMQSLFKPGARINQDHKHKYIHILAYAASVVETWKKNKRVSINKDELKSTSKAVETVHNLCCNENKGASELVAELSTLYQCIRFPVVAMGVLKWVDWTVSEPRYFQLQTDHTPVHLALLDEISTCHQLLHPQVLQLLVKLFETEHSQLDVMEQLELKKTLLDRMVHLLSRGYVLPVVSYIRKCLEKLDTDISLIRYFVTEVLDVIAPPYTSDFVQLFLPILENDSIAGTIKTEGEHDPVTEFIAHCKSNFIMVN
UniProt P25963: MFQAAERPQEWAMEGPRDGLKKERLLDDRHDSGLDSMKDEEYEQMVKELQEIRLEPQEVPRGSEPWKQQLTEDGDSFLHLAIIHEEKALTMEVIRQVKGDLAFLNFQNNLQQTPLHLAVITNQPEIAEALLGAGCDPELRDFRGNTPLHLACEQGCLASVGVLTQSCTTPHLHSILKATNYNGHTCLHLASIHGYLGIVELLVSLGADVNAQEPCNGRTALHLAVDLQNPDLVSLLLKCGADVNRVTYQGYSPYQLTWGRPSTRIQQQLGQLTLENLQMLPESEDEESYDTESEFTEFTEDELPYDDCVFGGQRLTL
UniProt Q9NQ35: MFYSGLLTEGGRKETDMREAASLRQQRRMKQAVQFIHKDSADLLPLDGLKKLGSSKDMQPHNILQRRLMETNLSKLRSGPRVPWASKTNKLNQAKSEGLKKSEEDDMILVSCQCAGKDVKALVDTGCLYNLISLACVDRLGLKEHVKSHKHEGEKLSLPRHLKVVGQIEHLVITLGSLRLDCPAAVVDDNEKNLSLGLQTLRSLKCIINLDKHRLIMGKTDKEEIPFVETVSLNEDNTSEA
UniProt Q86UT6, whole entry, looked up: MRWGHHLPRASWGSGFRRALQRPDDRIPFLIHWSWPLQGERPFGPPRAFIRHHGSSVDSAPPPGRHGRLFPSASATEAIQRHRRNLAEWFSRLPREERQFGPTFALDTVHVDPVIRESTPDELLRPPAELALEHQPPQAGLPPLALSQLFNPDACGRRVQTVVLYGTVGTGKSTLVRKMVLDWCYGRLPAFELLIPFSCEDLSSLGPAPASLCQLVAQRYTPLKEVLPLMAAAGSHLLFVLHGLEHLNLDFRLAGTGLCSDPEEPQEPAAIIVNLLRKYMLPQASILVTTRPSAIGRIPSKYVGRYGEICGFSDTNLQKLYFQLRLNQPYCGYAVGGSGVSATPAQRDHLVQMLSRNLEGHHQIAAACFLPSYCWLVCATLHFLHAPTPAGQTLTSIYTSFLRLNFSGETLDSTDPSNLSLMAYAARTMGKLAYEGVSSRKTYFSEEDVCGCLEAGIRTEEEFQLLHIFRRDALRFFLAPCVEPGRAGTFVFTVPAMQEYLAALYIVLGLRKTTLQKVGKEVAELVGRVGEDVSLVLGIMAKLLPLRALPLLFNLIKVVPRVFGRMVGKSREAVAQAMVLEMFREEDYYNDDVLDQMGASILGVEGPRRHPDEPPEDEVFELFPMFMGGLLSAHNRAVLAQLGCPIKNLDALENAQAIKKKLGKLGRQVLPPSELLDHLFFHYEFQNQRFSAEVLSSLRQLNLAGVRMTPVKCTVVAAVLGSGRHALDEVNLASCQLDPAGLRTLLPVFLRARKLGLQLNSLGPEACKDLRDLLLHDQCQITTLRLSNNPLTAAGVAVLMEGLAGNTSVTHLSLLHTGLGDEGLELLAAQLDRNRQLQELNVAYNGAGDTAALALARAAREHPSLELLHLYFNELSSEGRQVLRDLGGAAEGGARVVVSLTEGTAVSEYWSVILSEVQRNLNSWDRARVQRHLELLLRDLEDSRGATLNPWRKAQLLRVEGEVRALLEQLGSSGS
UniProt Q96T66: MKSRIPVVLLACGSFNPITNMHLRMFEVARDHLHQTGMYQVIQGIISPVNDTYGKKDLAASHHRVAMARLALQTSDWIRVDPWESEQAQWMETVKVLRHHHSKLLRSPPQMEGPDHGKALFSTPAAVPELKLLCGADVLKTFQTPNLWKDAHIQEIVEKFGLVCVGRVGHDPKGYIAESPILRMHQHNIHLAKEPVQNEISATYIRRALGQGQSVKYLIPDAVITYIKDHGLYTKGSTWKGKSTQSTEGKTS
UniProt Q9BZ95: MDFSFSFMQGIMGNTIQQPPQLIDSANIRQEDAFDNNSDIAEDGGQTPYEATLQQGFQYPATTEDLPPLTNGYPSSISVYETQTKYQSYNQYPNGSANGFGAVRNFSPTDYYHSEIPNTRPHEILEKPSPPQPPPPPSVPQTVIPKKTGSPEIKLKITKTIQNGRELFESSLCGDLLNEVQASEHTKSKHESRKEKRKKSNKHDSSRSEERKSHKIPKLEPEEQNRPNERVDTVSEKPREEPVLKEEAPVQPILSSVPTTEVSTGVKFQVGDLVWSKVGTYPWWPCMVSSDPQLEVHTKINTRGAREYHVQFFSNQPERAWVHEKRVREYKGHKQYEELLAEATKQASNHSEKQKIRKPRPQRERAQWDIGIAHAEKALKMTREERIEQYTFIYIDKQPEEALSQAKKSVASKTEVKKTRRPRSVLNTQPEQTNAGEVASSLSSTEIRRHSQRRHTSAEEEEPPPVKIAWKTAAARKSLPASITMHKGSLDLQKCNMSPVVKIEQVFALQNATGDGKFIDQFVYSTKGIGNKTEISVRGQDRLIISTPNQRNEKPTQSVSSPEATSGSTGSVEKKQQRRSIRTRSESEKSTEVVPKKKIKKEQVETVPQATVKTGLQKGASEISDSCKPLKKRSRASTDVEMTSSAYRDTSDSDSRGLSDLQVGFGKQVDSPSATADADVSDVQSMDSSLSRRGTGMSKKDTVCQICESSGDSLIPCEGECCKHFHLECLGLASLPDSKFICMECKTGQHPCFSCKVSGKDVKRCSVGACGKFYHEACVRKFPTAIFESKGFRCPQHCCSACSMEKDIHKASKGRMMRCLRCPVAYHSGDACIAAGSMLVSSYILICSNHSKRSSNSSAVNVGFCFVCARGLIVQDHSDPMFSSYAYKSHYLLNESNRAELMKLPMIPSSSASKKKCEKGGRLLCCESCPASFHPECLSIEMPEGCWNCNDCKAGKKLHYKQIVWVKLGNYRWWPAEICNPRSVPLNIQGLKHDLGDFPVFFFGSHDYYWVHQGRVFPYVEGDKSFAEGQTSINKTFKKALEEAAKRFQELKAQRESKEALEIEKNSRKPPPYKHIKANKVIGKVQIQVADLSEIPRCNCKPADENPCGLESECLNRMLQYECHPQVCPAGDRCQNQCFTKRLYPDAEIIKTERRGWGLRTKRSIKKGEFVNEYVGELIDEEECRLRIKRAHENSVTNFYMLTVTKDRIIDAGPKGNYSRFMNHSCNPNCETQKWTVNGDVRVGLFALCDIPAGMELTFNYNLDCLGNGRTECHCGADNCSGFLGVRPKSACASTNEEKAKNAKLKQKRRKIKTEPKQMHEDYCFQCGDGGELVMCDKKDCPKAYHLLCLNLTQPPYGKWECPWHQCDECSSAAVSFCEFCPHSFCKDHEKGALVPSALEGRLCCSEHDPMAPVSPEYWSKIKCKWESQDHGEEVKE
UniProt Q9NYR9: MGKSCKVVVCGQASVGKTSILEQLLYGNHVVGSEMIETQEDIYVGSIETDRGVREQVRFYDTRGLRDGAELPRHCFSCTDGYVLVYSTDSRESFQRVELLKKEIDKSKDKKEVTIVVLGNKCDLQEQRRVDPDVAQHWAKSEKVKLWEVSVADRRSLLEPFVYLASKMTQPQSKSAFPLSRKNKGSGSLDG

entinostat = compound: Nc1ccccc1NC(=O)c1ccc(CNC(=O)OCc2cccnc2)cc1 [entinostat]
Summary of the method: as §1

[2] = compound: O=C1NC(=O)C(c2cnc3ccccn23)=C1c1cn2c3c(cc(F)cc13)CN(C(=O)N1CCCCC1)CC2
Summary of the method: as §1

[3] = compound: NC(=O)c1cnc(N[C@@H]2CCCC[C@@H]2N)nc1Nc1cccc(-n2nccn2)c1
Summary of the method: as §1

[4] = compound: NCC(=O)Nc1ccc(-n2nc(C(F)(F)F)cc2-c2ccc3c(ccc4ccccc43)c2)cc1
Summary of the method: as §1

vorinostat = compound: O=C(CCCCCCC(=O)Nc1ccccc1)NO [vorinostat]
Summary of the method: as §1

citarinostat = compound: O=C(CCCCCCNC(=O)c1cnc(N(c2ccccc2)c2ccccc2Cl)nc1)NO [citarinostat]
Summary of the method: as §1

[5] = compound: c1cc(OCCN2CCCCC2)cc(-c2n[nH]c3ccc(-c4nnc[nH]4)cc23)c1
Summary of the method: as §1

[6] = compound: NC1(c2ccc(-c3nc4ccn5c(=O)[nH]nc5c4cc3-c3ccccc3)cc2)CCC1
Summary of the method: as §1

silmitasertib = compound: O=C(O)c1ccc2c(c1)nc(Nc1cccc(Cl)c1)c1ccncc12 [silmitasertib]
Summary of the method: as §1

Measured: log2 fold change

NOMO3 (UniProt P69849)
inactive: [1] 0.006 | entinostat 0.064 | [2] -0.014

NOMO1 (UniProt Q15155)
inactive: [1] -0.063 | [3] 0.147 | [4] -0.001 | entinostat -0.004 | vorinostat 0.069 | citarinostat -0.11 | [2] -0.009 | [5] 0

NOTCH1 (UniProt P46531)
inactive: [2] 0.039

NETO2 (UniProt Q8NC67)
inactive: [4] -0.037

NME4 (UniProt O00746)
inactive: [6] 0.085 | vorinostat 0.123 | citarinostat 0.107 | silmitasertib 0.041 | [5] 0.129

NRROS (UniProt Q86YC3)
inactive: vorinostat 0.059

NGDN (UniProt Q8NEJ9)
inactive: [1] -0.088 | entinostat -0.077

NELFCD (UniProt Q8IXH7)
inactive: [3] -0.005 | [4] -0.321 | vorinostat 0.234 | [2] -0.12

NFKBIA (UniProt P25963)
inactive: [1] -0.047 | [4] 0.048 | entinostat 0.309 | vorinostat 0.037 | citarinostat 0.085 | [5] -0.026

NRSN2 (UniProt Q9GZP1)
inactive: [1] 0.155 | entinostat -0.063 | [2] -0.002

NFATC1 (UniProt O95644)
inactive: [1] -0.295 | [6] -0.101 | [4] -0.025 | entinostat 0.071 | citarinostat 0.036 | silmitasertib 0.186 | [2] -0.267 | [5] -0.022

NOL3 isoform 3 (UniProt O60936)
inactive: [1] -0.135 | [6] -0.018 | [4] 0.001 | entinostat -0.04 | citarinostat -0.054 | silmitasertib 0.006 | [2] 0.088 | [5] -0.072

NSA2 (UniProt O95478)
inactive: vorinostat -0.022 | [2] 0

NIPSNAP2 (UniProt C9J7B1)
inactive: [1] -0.009 | [3] 0.175 | [6] -0.017 | entinostat 0.148 | silmitasertib 0.019

NOL4L (UniProt Q96MY1)
inactive: [1] 0.092 | entinostat 0.076 | [2] 0.002

NEO1 (UniProt Q92859)
inactive: [3] -0.419 | [6] -0.125 | [4] 0.206 | citarinostat -0.347 | silmitasertib 0.201 | [5] -0.297

NFE2L1 (UniProt Q14494)
inactive: [4] 0.055 | vorinostat -0.025 | [2] -0.198

NR3C1 isoform 3 (UniProt P04150)
inactive: [3] 0.031 | [6] -0.102 | citarinostat -0.07 | silmitasertib 0.072 | [2] -0.119 | [5] -0.404

NMU (UniProt P48645)
inactive: [3] -0.023 | [4] 0.132 | vorinostat 0.041 | citarinostat 0.043 | [2] 0.144 | [5] -0.08

NFKB2 (UniProt Q00653)
inactive: [3] 0.054 | [6] -0.024 | citarinostat 0.044 | silmitasertib 0.071 | [2] -0.069 | [5] -0.104

NEU3 isoform 2 (UniProt Q9UQ49)
inactive: [1] 0.112 | entinostat -0.071

NRGN (UniProt Q92686)
inactive: [3] 0.144 | vorinostat -0.231 | [2] -0.215

NKTR (UniProt P30414)
inactive: [6] 0.074 | silmitasertib -0.023

NOS1AP (UniProt O75052)
inactive: [6] -0.27 | [4] -0.302 | citarinostat -0.225 | silmitasertib 0.312 | [2] -0.186 | [5] 0.59

NOP10 (UniProt Q9NPE3)
inactive: [6] 0.064 | silmitasertib -0.012

NOC4L (UniProt Q9BVI4)
inactive: vorinostat -0.011

NRIP3 (UniProt Q9NQ35)
inactive: [1] 0.247 | [3] 0.12 | entinostat 0.024

Reprinted from the entries so far (2 entries):
NOMO1 (UniProt Q15155)
inactive: [1] -0.063 | [3] 0.147 | [4] -0.001 | entinostat -0.004 | vorinostat 0.069 | citarinostat -0.11 | [2] -0.009 | [5] 0

NOTCH1 (UniProt P46531)
inactive: [2] 0.039

Additional records.

NOD1 (UniProt Q9Y239)
inactive: [1] -0.064 | entinostat -0.141 | vorinostat -0.157 | citarinostat -0.076 | [2] 0.056 | [5] 0.137

NLRX1 (UniProt Q86UT6)
inactive: [1] 0.169 | entinostat 0.104 | [2] -0.089

NMNAT3 (UniProt Q96T66)
inactive: [1] 0.178 | [6] 0.031 | entinostat 0 | citarinostat -0.105 | silmitasertib -0.073 | [2] -0.327 | [5] 0.02

NKAP (UniProt Q8N5F7)
inactive: [3] -0.043 | [6] 0.027 | [4] -0.028 | vorinostat 0.019 | citarinostat 0.099 | silmitasertib -0.132 | [2] 0.111 | [5] -0.144

NOC3L (UniProt Q8WTT2)
inactive: [3] -0.489 | [6] -0.134 | vorinostat 0.004 | silmitasertib 0.39 | [2] -0.057

NSD3 (UniProt Q9BZ95)
inactive: [1] -0.21 | [3] -0.093 | [4] -0.242 | entinostat -0.131 | vorinostat -0.037 | [2] 0.135

NKIRAS2 (UniProt Q9NYR9)
inactive: [1] -0.134 | [6] -0.117 | entinostat 0 | silmitasertib -0.145 | [2] -0.045

— the supplement of paper PMC10849652
